Results are given in words; binding and its absence hold for the method and conditions named. Binding seen in cells or lysates may run through a third protein. Some results given as binding are weak or reduced against the parent protein; the word gives no strength.
Tests used:
[1] = molecular target: coilin (human (endogenous in HCT116-derived hnRNPUL1-AID cells)) (UniProt P38432); assay: co-IP
[2] = molecular target: FLAG-tagged hnRNPUL1 WT (full length) (human) (UniProt Q9BUJ2); assay: co-IP

Amino acid sequences for entries named in this document (tags omitted).
UniProt P38432: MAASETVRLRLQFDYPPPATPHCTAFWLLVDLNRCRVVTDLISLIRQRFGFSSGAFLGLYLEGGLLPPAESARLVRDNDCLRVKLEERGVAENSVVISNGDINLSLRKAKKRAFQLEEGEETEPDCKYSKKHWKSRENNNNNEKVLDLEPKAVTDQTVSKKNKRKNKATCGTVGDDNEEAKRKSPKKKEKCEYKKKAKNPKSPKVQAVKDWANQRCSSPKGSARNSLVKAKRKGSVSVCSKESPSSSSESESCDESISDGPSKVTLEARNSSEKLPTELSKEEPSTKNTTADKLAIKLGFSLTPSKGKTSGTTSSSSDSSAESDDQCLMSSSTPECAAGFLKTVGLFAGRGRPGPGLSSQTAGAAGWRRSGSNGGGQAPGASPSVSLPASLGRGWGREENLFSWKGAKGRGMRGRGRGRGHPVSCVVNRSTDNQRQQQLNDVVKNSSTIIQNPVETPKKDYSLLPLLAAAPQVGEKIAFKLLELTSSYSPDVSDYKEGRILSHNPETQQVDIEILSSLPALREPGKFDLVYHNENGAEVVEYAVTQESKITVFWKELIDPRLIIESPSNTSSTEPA
UniProt Q9BUJ2: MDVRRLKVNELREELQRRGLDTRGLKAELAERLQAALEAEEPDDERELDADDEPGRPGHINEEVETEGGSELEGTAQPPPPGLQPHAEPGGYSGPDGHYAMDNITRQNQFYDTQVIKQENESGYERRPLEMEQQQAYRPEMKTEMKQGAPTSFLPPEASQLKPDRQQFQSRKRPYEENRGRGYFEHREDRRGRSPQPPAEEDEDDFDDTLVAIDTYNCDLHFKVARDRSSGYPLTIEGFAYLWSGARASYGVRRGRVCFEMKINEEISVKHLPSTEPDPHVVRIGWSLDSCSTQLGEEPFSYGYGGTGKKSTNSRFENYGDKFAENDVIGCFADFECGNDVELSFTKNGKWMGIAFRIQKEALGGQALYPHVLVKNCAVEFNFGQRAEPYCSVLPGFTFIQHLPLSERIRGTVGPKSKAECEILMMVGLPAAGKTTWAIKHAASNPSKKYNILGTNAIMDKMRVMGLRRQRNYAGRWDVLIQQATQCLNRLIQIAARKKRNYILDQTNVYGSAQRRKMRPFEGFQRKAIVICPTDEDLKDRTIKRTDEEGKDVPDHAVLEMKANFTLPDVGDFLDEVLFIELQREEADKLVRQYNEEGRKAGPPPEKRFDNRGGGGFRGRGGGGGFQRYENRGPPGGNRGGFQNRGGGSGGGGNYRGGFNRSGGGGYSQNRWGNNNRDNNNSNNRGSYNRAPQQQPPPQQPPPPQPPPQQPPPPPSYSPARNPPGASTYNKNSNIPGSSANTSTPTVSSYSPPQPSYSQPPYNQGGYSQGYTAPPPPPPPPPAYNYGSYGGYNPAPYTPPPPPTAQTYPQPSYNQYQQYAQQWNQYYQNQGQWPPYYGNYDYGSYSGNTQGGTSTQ

B1: SART3 (protein, UniProt Q15020 1-963)
chain: MATAAETSASEPEAESKAGPKADGEEDEVKAARTRRKVLSRAVAAATYKTMGPAWDQQEEGVSESDGDEYAMASSAESSPGEYEWEYDEEEEKNQLEIERLEEQLSINVYDYNCHVDLIRLLRLEGELTKVRMARQKMSEIFPLTEELWLEWLHDEISMAQDGLDREHVYDLFEKAVKDYICPNIWLEYGQYSVGGIGQKGGLEKVRSVFERALSSVGLHMTKGLALWEAYREFESAIVEAARLEKVHSLFRRQLAIPLYDMEATFAEYEEWSEDPIPESVIQNYNKALQQLEKYKPYEEALLQAEAPRLAEYQAYIDFEMKIGDPARIQLIFERALVENCLVPDLWIRYSQYLDRQLKVKDLVLSVHNRAIRNCPWTVALWSRYLLAMERHGVDHQVISVTFEKALNAGFIQATDYVEIWQAYLDYLRRRVDFKQDSSKELEELRAAFTRALEYLKQEVEERFNESGDPSCVIMQNWARIEARLCNNMQKARELWDSIMTRGNAKYANMWLEYYNLERAHGDTQHCRKALHRAVQCTSDYPEHVCEVLLTMERTEGSLEDWDIAVQKTETRLARVNEQRMKAAEKEAALVQQEEEKAEQRKRARAEKKALKKKKKIRGPEKRGADEDDEKEWGDDEEEQPSKRRRVENSIPAAGETQNVEVAAGPAGKCAAVDVEPPSKQKEKAASLKRDMPKVLHDSSKDSITVFVSNLPYSMQEPDTKLRPLFEACGEVVQIRPIFSNRGDFRGYCYVEFKEEKSALQALEMDRKSVEGRPMFVSPCVDKSKNPDFKVFRYSTSLEKHKLFISGLPFSCTKEELEEICKAHGTVKDLRLVTNRAGKPKGLAYVEYENESQASQAVMKMDGMTIKENIIKVAISNPPQRKVPEKPETRKAPGGPMLLPQTYGARGKGRTQLSLLPRALQRPSAAAPQAENGPAAAPAVAAPAATEAPKMSNADFAKLFLRK
Question: B1 was tested. Which binding [1] did it give?
Answer: Its binding is “binds”.

B2: RBM7 (protein, UniProt Q9Y580 1-266)
chain: MGAAAAEADRTLFVGNLETKVTEELLFELFHQAGPVIKVKIPKDKDGKPKQFAFVNFKHEVSVPYAMNLLNGIKLYGRPIKIQFRSGSSHAPQDVSLSYPQHHVGNSSPTSTSPSRYERTMDNMTSSAQIIQRSFSSPENFQRQAVMNSALRQMSYGGKFGSSPLDQSGFSPSVQSHSHSFNQSSSSQWRQGTPSSQRKVRMNSYPYLADRHYSREQRYTDHGSDHHYRGKRDDFFYEDRNHDDWSHDYDNRRDSSRDGKWRSSRH
Question: Which binding [2] does the source give for B2 here?
Answer: Its binding is “binds”.

Source: article doi:10.1101/2023.07.22.550030
